In article PMC8506967, “Binding specificity and function of the SWI/SNF subunit SMARCA4 bromodomain interaction with acetylated histone H3K14” (The Journal of Biological Chemistry, 2021):
These are yes or no findings as the source states them, for the method shown. Where a sequence is shown, tags or fusion partners need not be part of it.

B1: CeSMARCA4 BD Tyr1220Ala (domain or fragment, UniProt G5EF53 1179-1289)
chain: DPELAEKINEMLDVILEYKNEDGELIADVFQTLPTRKELPDAYQVISKPMDFDRINKKIETGRYTVMEELNDDMNLLVNNAQTYNEEGSEIYVSSETIGKLWKEQYDKFMN
B2: CeSMARCA4 BD Asn1263Ala (domain or fragment, UniProt G5EF53 1179-1289)
chain: DPELAEKINEMLDVILEYKNEDGELIADVFQTLPTRKELPDYYQVISKPMDFDRINKKIETGRYTVMEELNDDMNLLVNNAQTYAEEGSEIYVSSETIGKLWKEQYDKFMN

Target: histone H3_(7–20)K14ac peptide (UniProt P68431)
Assay: condition: protein 50–100 μM in the cell, peptide 500–1000 μM in the syringe; ITC; MicroCal Auto-iTC200, 293 or 298 K, 10 mM HEPES, 100 mM NaCl, 2.5% glycerol, pH 7.3; protein 50–100 μM in the cell, peptide 500–1000 μM in the syringe; single-site binding model; both purified

Binder	binding
B1	no binding
B2	no binding
